For one experiment, the target named is Fg-SPOP-ΔMATH (human). The experiment is described as follows: co-IP; 293T cells co-transfected with two tagged constructs (Fg, Myc), lysed 48 h after transfection, IP and immunoblot by the tags; cells of Fig. 1 treated with 25 uM MG132 for 4 h before harvest.
The target in another experiment is Fg-HAUSP-ΔMATH (human). Described as above.

No constants are given. Whether binding was seen depends on the method and setting. Binding seen in cells or lysates may run through a third protein. Where a sequence is shown, tags or fusion partners need not be part of it.

B1: Myc-LZTS2 (protein, UniProt Q9BRK4 1-669)
chain: MAIVQTLPVPLEPAPEAATAPQAPVMGSVSSLISGRPCPGGPAPPRHHGPPGPTFFRQQDGLLRGGYEAQEPLCPAVPPRKAVPVTSFTYINEDFRTESPPSPSSDVEDAREQRAHNAHLRGPPPKLIPVSGKLEKNMEKILIRPTAFKPVLPKPRGAPSLPSFMGPRATGLSGSQGSLTQLFGGPASSSSSSSSSSAADKPLAFSGWASGCPSGTLSDSGRNSLSSLPTYSTGGAEPTTSSPGGHLPSHGSGRGALPGPARGVPTGPSHSDSGRSSSSKSTGSLGGRVAGGLLGSGTRASPDSSSCGERSPPPPPPPPSDEALLHCVLEGKLRDREAELQQLRDSLDENEATMCQAYEERQRHWQREREALREDCAAQAQRAQRAQQLLQLQVFQLQQEKRQLQDDFAQLLQEREQLERRCATLEREQRELGPRLEETKWEVCQKSGEISLLKQQLKESQAELVQKGSELVALRVALREARATLRVSEGRARGLQEAARARELELEACSQELQRHRQEAEQLREKAGQLDAEAAGLREPPVPPATADPFLLAESDEAKVQRAAAGVGGSLRAQVERLRVELQRERRRGEEQRDSFEGERLAWQAEKEQVIRYQKQLQHNYIQMYRRNRQLEQELQQLSLELEARELADLGLAEQAPCICLEEITATEI
For the molecule B1, the binding entry with Fg-SPOP-ΔMATH (human) and with Fg-HAUSP-ΔMATH (human) was “no binding” throughout.
